For 1 molecule, Papp B→A and efflux ratio results are on record in article PMC11348715 (Chemical Science, 2024).

This data set can be described thus: Caco-2 permeability assay. Type of data set: in vitro ADME. As to conditions: human.

For `C[C@H]1O[C@@H](O[C@H]2[C@@H](O)C[C@H](O[C@H]3[C@@H](O)C[C@H](O[C@H]4CC[C@@]5(C)[C@H](CC[C@@H]6[C@@H]5C[C@@H](O)[C@]5(C)[C@@H](C7=CC(=O)OC7)CC[C@]65O)C4)O[C@@H]3C)O[C@@H]2C)C[C@H](O)[C@@H]1O` [digoxin], the Papp B→A at 10 µM (Caco-2) amounted to 12.2 ×10⁻⁶ cm/s. In addition, the efflux ratio at 10 µM (Caco-2, efflux ratio (ER), Caco-2, donor concentration 10 μM) is 7.68.
